# Measured values taken from EP0510151B1, “IMPROVED ANTI-PLAQUE COMPOSITIONS COMPRISING A COMBINATION OF MORPHOLINOAMINO ALCOHOL AND ANTI-MICROBIAL AGENT” (Pharmacia AB, priority 1990, dated 1992).
# Columns and labels:
# Streptococcus mutans = assay: Minimal inhibitory concentration (MIC) by broth dilution and checkerboard titration of combinations; type: cell-based; settings: S. mutans (ATCC 2517S)
# Procedure: (§1) The minimal inhibitory concentration (MIC) of the test compound is the minimum concentration of compound required to inhibit growth of the test microorganism. The MIC is determined by serially diluting the test solution through tubes of sterile broth. The tubes are inoculated and incubated at 37°C for 48 hours. At the end of the incubation time, growth is checked macroscopically. The lowest concentration of test compound to inhibit growth is the MIC. This technique is used to assess antimicrobial activity of combinations. The checkerboard is the pattern found by multiple combinations of two agents in concentrations equal to, above and below their minimal inhibitory concentration for the microorganism tested against. The checkerboard consists of columns which contain the same amount of one agent which is diluted along the x-axis and rows which each contain the same amount of the second agent diluted along the y-axis. Thus each tube is a unique combination of the two agents. […] A method for illustrating the effect of the combination of the two agents is obtained by plotting the MIC's of each agent alone and the MIC's for these agents in combination. Antimicrobial synergy is indicated if the MIC's for the agents in combination are lower than the MIC's for the agents alone.
# [1] = tested on: Bacteroides melaninogenicus; assay: as above; type: cell-based; settings: B. melaninogenicus (J18M2)
# Procedure: as §1
# [2] = agent alone (other agent 0), Table VIII
# [3] = in combination with 50 milligrams/liter morpholinoamino alcohol HCl
# [4] = in combination with 100 milligrams/liter morpholinoamino alcohol HCl
smiles,measurement,setting,value
"CCCCCCCCCCCCCCCC[n+]1ccccc1 [cetyl pyridinium chloride, reference compound]",Minimum Inhibitory Concentration,Streptococcus mutans; [2],0.025 milligrams/liter
same,Minimum Inhibitory Concentration,Streptococcus mutans; [3],0.0188 milligrams/liter
same,Minimum Inhibitory Concentration,Streptococcus mutans; [4],0.0125 milligrams/liter
same,Minimum Inhibitory Concentration,[1]; [2],0.0125 milligrams/liter
same,Minimum Inhibitory Concentration,[1]; [3],0.006 milligrams/liter
same,Minimum Inhibitory Concentration,[1]; [4],0.003 milligrams/liter
